Results on ten molecules are retold here after US20200017752A1, “Use Of A Composition Containing At Least One Biodegradable Sugar-Amide-Compound In Combination With At Least One Sulfur-Based Synergist For Corrosion Inhibition Of A Metallic Equipment In Oilfield Applications” (Clariant International Ltd., priority 2016, published 2020).

A short description of data set [1]: Corrosion test, rotating cylinder electrode (RCE), LPR. To be noted: 150° F., 2000 RPM, synthetic brine, 100% CO2, 12 ppm total inhibitor. An excerpt:
In order to evaluate the corrosion inhibition efficacy of the formulations, two different test methods were employed: rotating cylinder electrode (RCE) tests and high pressure, high temperature (HPHT) autoclave weight loss tests. For all testing, the following standard brine composition was used (as outlined in table 3):
A gas composition of 100% CO2 was used throughout testing.
The metallurgy of the coupons tested was C1018 carbon steel for RCE testing and HPHT autoclave testing. Coupons were polished mechanically using 320 grit silicon-carbide (SiC) paper, 400 grit SiC paper, then 600 grit SIC paper and rinsed with water then acetone prior to testing.
The rotating cylinder electrode (RCE) tests were conducted in Pyrex™ glass reaction kettles that were heated to 150° F. The testing solution was comprised of 900 mL of brine. The electrode rotation rate was set at 2000 RPM, which generated a wall shear stress of 7.0 Pa. Linear polarization resistance (LPR) measurements were made with a Gamry electrochemical measurement system. The working electrode was made of a 1018 carbon steel (CS) cylinder with a surface area of 3.16 cm^2. A Hastelloy C276 electrode was used as a pseudo-reference, and a titanium rod was used as the counter electrode. […] The baseline corrosion rate corresponds to the blank corrosion value. Upon completion of the tests, the electrodes were cleaned in an inhibited acid bath according to ASTM G1 C.3.5, and weighed to 0.1 mg.

A short description of data set [2]: HPHT rotating cage autoclave (RCA) weight loss corrosion test. To be noted: 700 rpm, 150 ppm total inhibitor, brine, CO2; for Average Corrosion Rate At 66° C.: 34.5 bar, 3 days; for Average Corrosion Rate At 149° C.: 27.6 bar, 5 days.

Consider `N.O=C(O)CS` [ATG, Ammonium Thioglycolate], for which, in data set [1], the “Corrosion Rate 2 hr after Cl dose” value was found to be 47.6 mpy and the “Corrosion Rate Final 3 hr” value is 14.5 mpy. In data set [2], the “Average Corrosion Rate At 66° C.” value was determined as 6.32 mpy and the “Average Corrosion Rate At 149° C.” value worked out at 40.61 mpy.

Consider `N.N.O=S(O)(O)=S` [ATS, Ammoniumthiosulfate], for which, in data set [1], the “Corrosion Rate 2 hr after Cl dose” value was determined as 38.7 mpy and the “Corrosion Rate Final 3 hr” value is given as 13.9 mpy. Further, in data set [2], the “Average Corrosion Rate At 66° C.” value is given as 4.89 mpy and the “Average Corrosion Rate At 149° C.” value amounted to 34.87 mpy.

For `CCCCCCCCCC(=O)N(C)CC(O)C(O)C(O)C(O)CO` (stereo not shown) [Glucamide #1], in data set [1], the “Corrosion Rate 2 hr after Cl dose” value is on record as 44.2 mpy and the “Corrosion Rate Final 3 hr” value came to 11.6 mpy. In data set [2], the “Average Corrosion Rate At 66° C.” value was found to be 6.25 mpy and the “Average Corrosion Rate At 149° C.” value worked out at 41.90 mpy.

`CC(C)CCC(C)CCC(C)CC(=O)N(C)CC(O)C(O)C(O)C(O)CO` (stereo not shown) [Glucamide #2]: in data set [1], the “Corrosion Rate 2 hr after Cl dose” value amounted to 34.6 mpy and the “Corrosion Rate Final 3 hr” value stood at 10.2 mpy. Also, in data set [2], the “Average Corrosion Rate At 66° C.” value is reported as 4.23 mpy and the “Average Corrosion Rate At 149° C.” value amounted to 35.66 mpy.

For `CCCCCCCCCC(=O)N(C)CC1OC(CO)C(O)C1O` (stereo not shown) [Glucamide #3], in data set [1], the “Corrosion Rate 2 hr after Cl dose” value was determined as 44.8 mpy and the “Corrosion Rate Final 3 hr” value is listed as 10.9 mpy. In data set [2], the “Average Corrosion Rate At 66° C.” value came to 4.81 mpy and the “Average Corrosion Rate At 149° C.” value was 36.10 mpy.

Consider `CC(C)CCC(C)CCC(C)CC(=O)N(C)CC1OC(CO)C(O)C1O` (stereo not shown) [Glucamide #4], for which, in data set [1], the “Corrosion Rate 2 hr after Cl dose” value stood at 41.6 mpy and the “Corrosion Rate Final 3 hr” value came to 9.8 mpy. In data set [2], the “Average Corrosion Rate At 66° C.” value was found to be 3.62 mpy and the “Average Corrosion Rate At 149° C.” value amounted to 29.73 mpy.

As to `CCCCCCCC/C=C\CCCCCCCC(=O)N(C)CC(O)C(O)C(O)C(O)CO` (stereo not shown) [Glucamide #5], in data set [1], the “Corrosion Rate 2 hr after Cl dose” value turned out to be 38.6 mpy and the “Corrosion Rate Final 3 hr” value amounted to 9.6 mpy. Moreover, in data set [2], the “Average Corrosion Rate At 66° C.” value was found to be 3.87 mpy and the “Average Corrosion Rate At 149° C.” value turned out to be 32.76 mpy.

Take `CCCCCCCC/C=C\CCCCCCCC(=O)N(C)CC1OC(CO)C(O)C1O` (stereo not shown) [Glucamide #6]: in data set [1], the “Corrosion Rate 2 hr after Cl dose” value is 42.4 mpy and the “Corrosion Rate Final 3 hr” value came out at 10.6 mpy. Further, in data set [2], the “Average Corrosion Rate At 66° C.” value is recorded as 3.92 mpy and the “Average Corrosion Rate At 149° C.” value was found to be 35.79 mpy.

As for `OCCS` [MET, Mercaptoethanol], in data set [1], the “Corrosion Rate 2 hr after Cl dose” value is 45.6 mpy and the “Corrosion Rate Final 3 hr” value was 15.4 mpy. In data set [2], the “Average Corrosion Rate At 66° C.” value was determined as 5.21 mpy and the “Average Corrosion Rate At 149° C.” value is listed as 38.12 mpy.

For the molecule `CCCCCCCC/C=C\CCCCCCCCN[C@@H](CCSC)C(=O)O` [OMet, N-Oleyl-Methionine], in data set [1], the “Corrosion Rate 2 hr after Cl dose” value came out at 39.6 mpy and the “Corrosion Rate Final 3 hr” value came out at 12.9 mpy. Further, in data set [2], the “Average Corrosion Rate At 66° C.” value is reported as 7.89 mpy and the “Average Corrosion Rate At 149° C.” value worked out at 44.45 mpy.
